Measured values published in patent US8076488B2, “Bicyclic urea derivatives useful in the treatment of cancer and other disorders” (Bayer Healthcare LLC, priority 2003, dated 2011).
Where “and” joins values, the source holds several entries; their conditions need not be identical. Equal values may be shown once. Some of these results come from one statement about several compounds together.

Target: T1, c-Raf kinase (Lck-activated c-Raf, Raf-1) (Homo sapiens, UniProt P04049)
T1 construct: GST-c-Raf (from amino acid 302 to amino acid 648); made in house; host or cells: Sf9 insect cells (baculovirus; co-infection with full-length Lck)
Assay: c-Raf (Raf-1) biochemical assay (radioactive filtermat assay, MEK-1 substrate)
Conditions: at 1 micromolar compound, 5 μM ATP, 32° C., 1 hour
Procedure: Biological Tests c-Raf (Raf-1) Biochemical Assay Purification of Proteins Used in the Assay
The c-Raf biochemical assay was performed with a c-Raf enzyme that was activated (phosphorylated) by Lck kinase. Lck-activated c-Raf (Lck/c-Raf) was produced in Sf9 insect cells by co-infecting cells with baculoviruses expressing, under the control of the polyhedrin promoter, GST-c-Raf (from amino acid 302 to amino acid 648) and Lck (full-length). Both baculoviruses were used at the multiplicity of infection of 2.5 and the cells were harvested 48 hours post infection.
MEK-1 protein was produced in Sf9 insect cells by infecting cells with the baculovirus expressing GST-MEK-1 (full-length) fusion protein at the multiplicity of infection of 5 and harvesting the cells 48 hours post infection. Similar purification procedure was used for GST-c-Raf 302-648 and GST-MEK-1.
Transfected cells were suspended at 100 mg of wet cell biomass per mL in a buffer containing 10 mM sodium phosphate, 140 mM sodium chloride pH 7.3, 0.5% Triton X-100 and the protease inhibitor cocktail. The cells were disrupted with Polytron homogenizer and centrifuged 30,000 g for 30 minutes. The 30,000 g supernatant was applied onto GSH-Sepharose. The resin was washed with a buffer containing 50 mM Tris, pH 8.0, 150 mM NaCl and 0.01% Triton X-100. The GST-tagged proteins were eluted with a solution containing 100 mM Glutathione, 50 mM Tris, pH 8.0, 150 mM NaCl and 0.01% Triton X-100. The purified proteins were dialyzed into a buffer containing 20 mM Tris, pH 7.5, 150 mM NaCl and 20% Glycerol.
Biochemical Assay Protocol and Results
The compounds were serially diluted in DMSO using three-fold dilutions to stock concentrations ranging typically from 50 μM to 20 nM (final concentrations in the assay range from 1 μM to 0.4 nM). The c-Raf biochemical assay was performed as a radioactive filtermat assay in 96-well Costar polypropylene plates (Costar 3365). The plates were loaded with 75 μL solution containing 50 mM HEPES pH 7.5, 70 mM NaCl, 80 ng of Lck/c-Raf and 1 μg MEK-1. Subsequently, 2 μL of the serially diluted individual compounds were added to the reaction, prior to the addition of ATP. The reaction was initiated with 25 μL ATP solution containing 5 μM ATP and 0.3 μCi [33P]-ATP. The plates were sealed and incubated at 32° C. for 1 hour. The reaction was quenched with the addition of 50 μl of 4% Phosphoric Acid and harvested onto P30 filtermats (PerkinElmer) using a Wallac Tomtec Harvester. Filtermats were washed with 1% Phosphoric Acid first and deinonized H2O second. The filters were dried in a microwave, soaked in scintillation fluid and read in a Wallac 1205 Betaplate Counter (Wallac Inc., Atlanta, Ga., U.S.A.). The results were expressed as percent inhibition. % Inhibition=[[…]]×100 where • Tib=(counts per minute with inhibitor)−(background) • Ti=(counts per minute without inhibitor)−(background)

CNC(=O)c1cc(Oc2cc(NC(=O)Nc3ccc4c(c3)OC(F)(F)O4)c(Cl)cc2Cl)ccn1 [Example 79]
inhibition of c-Raf kinase: > 40% and > 80%

CNC(=O)c1cc(Oc2ccc(Cl)c(NC(=O)Nc3ccc4c(c3)OC(F)(F)O4)c2)ccn1 [Example 80]
inhibition of c-Raf kinase: > 40% and > 80%

CNC(=O)c1cc(Oc2ccc(Cl)c(NC(=O)Nc3ccc4c(c3)OC(F)(F)C(F)(F)O4)c2)ccn1 [Example 81]
inhibition of c-Raf kinase: > 40% and > 80%

CNC(=O)c1cc(Oc2ccc(Cl)c(NC(=O)Nc3ccc4c(cnn4C)c3)c2)ccn1 [Example 82]
inhibition of c-Raf kinase: > 40% and > 80%

CNC(=O)c1cc(Oc2ccc(NC(=O)Nc3ccc4c(C)cc(=O)oc4c3)c(C)c2)ccn1 [Example 83]
inhibition of c-Raf kinase: > 40% and > 80%

CNC(=O)c1cc(Oc2ccc(NC(=O)Nc3ccc4sc(C)nc4c3)c(C)c2)ccn1 [Example 84]
inhibition of c-Raf kinase: > 40% and > 80%

CNC(=O)c1cc(Oc2ccc(NC(=O)Nc3ccc4c(c3)OC(F)(F)C(F)(F)O4)cc2C)ccn1 [Example 85]
inhibition of c-Raf kinase: > 40% and > 80%

CNC(=O)c1cc(Oc2ccc(NC(=O)Nc3ccc4c(c3)OC(F)(F)C(F)(F)O4)c([N+](=O)[O-])c2)ccn1 [Example 86]
inhibition of c-Raf kinase: > 40% and > 80%

NC(=O)c1cc(Oc2ccc(NC(=O)Nc3ccc4c(c3)OC(F)(F)O4)c(F)c2)ccn1 [Example 92]
inhibition of c-Raf kinase: > 40% and > 80%

NC(=O)c1cc(Oc2ccc(NC(=O)Nc3ccc4c(c3)OC(F)(F)C(F)(F)O4)c(F)c2)ccn1 [Example 93]
inhibition of c-Raf kinase: > 40% and > 80%

Cn1ncc2cc(NC(=O)Nc3ccc(Oc4ccnc(C(N)=O)c4)cc3Cl)ccc21 [Example 94]
inhibition of c-Raf kinase: > 40% and > 80%

NC(=O)c1cc(Oc2ccc(NC(=O)Nc3ccc4c(c3)CCC4=O)c(Cl)c2)ccn1 [Example 96]
inhibition of c-Raf kinase: > 80% | inhibition of c-Raf kinase (listed as example 96): > 40%

Cn1ncc2cc(NC(=O)Nc3ccc(Oc4ccnc(C(N)=O)c4)c(Cl)c3)ccc21 [Example 97]
inhibition of c-Raf kinase: > 80% | inhibition of c-Raf kinase (listed as example 97): > 40%

CNC(=O)c1cc(Oc2ccc(NC(=O)Nc3nc4ccc([N+](=O)[O-])cc4s3)c(F)c2)ccn1 [Example 101]
inhibition of c-Raf kinase: > 80% | inhibition of c-Raf kinase (listed as example 101): > 40%

CNC(=O)c1cc(Oc2ccc(NC(=O)Nc3ccc4c(c3)C(F)(F)OC(F)(F)O4)cc2)ccn1 [Example 104, N-methyl-4-[4-({[(2,2,4,4-tetrafluoro-4H-1,3-benzodioxin-6-yl)amino]carbonyl}-amino)phenoxy]pyridine-2-carboxamide]
inhibition of c-Raf kinase: > 80% | inhibition of c-Raf kinase (listed as example 104): > 40%

CNC(=O)c1cc(Oc2ccc(NC(=O)Nc3cnc4ccccc4n3)c(F)c2)ccn1 [Example 107, 4-(3-fluoro-4-{[(quinoxalin-2-ylamino)carbonyl]amino}phenoxy)-N-methyl-pyridine-2-carboxamide]
inhibition of c-Raf kinase: > 80% | inhibition of c-Raf kinase (listed as example 107): > 40%

CNC(=O)c1cc(Oc2ccc(NC(=O)Nc3ccc4c(c3)C(F)(F)OC(F)(F)O4)c(F)c2)ccn1 [Example 109]
inhibition of c-Raf kinase: > 40% and > 80%

CNC(=O)c1cc(Oc2ccc(NC(=O)Nc3ccc4c(c3)C(F)(F)OC(F)(F)O4)c(F)c2F)ccn1 [Example 110]
inhibition of c-Raf kinase: > 40% and > 80%

CNC(=O)c1cc(Oc2cc(F)c(NC(=O)Nc3ccc4c(c3)C(F)(F)OC(F)(F)O4)c(F)c2)ccn1 [Example 111]
inhibition of c-Raf kinase: > 40% and > 80%

CNC(=O)c1cc(Oc2cc(F)c(NC(=O)Nc3ccc4c(c3)C(F)(F)OC(F)(F)O4)cc2F)ccn1 [Example 112]
inhibition of c-Raf kinase: > 40% and > 80%

CNC(=O)c1cc(Oc2ccc(NC(=O)Nc3ccc4c(c3)C(F)(F)OC(F)(F)O4)c(C)c2)ccn1 [Example 113]
inhibition of c-Raf kinase: > 40% and > 80%

CNC(=O)c1cc(Oc2ccc(NC(=O)Nc3ccc4c(c3)C(F)(F)OC(F)(F)O4)c3cccnc23)ccn1 [Example 114]
inhibition of c-Raf kinase: > 40% and > 80%

CNC(=O)c1cc(Oc2ccc(NC(=O)Nc3ccc4c(c3)C(F)(F)OC(F)(F)O4)c(Cl)c2)ccn1 [Example 116]
inhibition of c-Raf kinase: > 80% | inhibition of c-Raf kinase (listed as example 116): > 40%

CNC(=O)c1cc(Oc2ccc(Cl)c(NC(=O)Nc3ccc4c(c3)C(F)(F)OC(F)(F)O4)c2)ccn1 [Example 118]
inhibition of c-Raf kinase: > 40% and > 80%

CNC(=O)c1cncc(Oc2ccc(NC(=O)Nc3ccc4c(c3)C(F)(F)OC(F)(F)O4)cc2F)c1 [Example 119]
inhibition of c-Raf kinase: > 40% and > 80%

CNC(=O)c1cc(Oc2ccc(NC(=O)Nc3ccc4c(c3)C(F)(F)OC(F)(F)O4)cc2C)ccn1 [Example 120]
inhibition of c-Raf kinase: > 40% and > 80%

CNC(=O)c1cc(Oc2ccc(NC(=O)Nc3ccc4c(c3)C(F)(F)OC(F)(F)O4)c([N+](=O)[O-])c2)ccn1 [Example 121]
inhibition of c-Raf kinase: > 40% and > 80%

CNC(=O)c1cncc(Oc2ccc(NC(=O)Nc3ccc4c(c3)C(F)(F)OC(F)(F)O4)cc2)c1 [Example 123]
inhibition of c-Raf kinase: > 40% and > 80%

CNC(=O)c1cc(Oc2cc(NC(=O)Nc3ccc4c(c3)C(F)(F)OC(F)(F)O4)c(Cl)cc2Cl)ccn1 [Example 124]
inhibition of c-Raf kinase: > 40% and > 80%

NC(=O)c1cc(Oc2ccc(NC(=O)Nc3ccc4c(c3)C(F)(F)OC(F)(F)O4)c(F)c2)ccn1 [Example 126]
inhibition of c-Raf kinase: > 40% and > 80%

NC(=O)c1cc(Oc2ccc(NC(=O)Nc3ccc4c(c3)C(F)(F)OC(F)(F)O4)c(Cl)c2)ccn1 [Example 127]
inhibition of c-Raf kinase (listed as example 127): > 40% and > 80%

NC(=O)c1cc(Oc2ccc(NC(=O)Nc3ccc4c(c3)C(F)(F)OC(F)(F)O4)cc2Cl)ccn1 [Example 128]
inhibition of c-Raf kinase: > 40% and > 80%

NC(=O)c1cc(Oc2ccc(NC(=O)Nc3ccc4c(c3)C(F)(F)OC(F)(F)O4)c(Cl)c2)ccn1 [Example 129]
inhibition of c-Raf kinase (listed as example 129): > 40% and > 80%

CNC(=O)CNC(=O)c1cc(Oc2ccc(NC(=O)Nc3ccc4c(c3)C(F)(F)OC(F)(F)O4)cc2)ccn1 [Example 130]
inhibition of c-Raf kinase: > 40% and > 80%

CN(C)C(=O)CNC(=O)c1cc(Oc2ccc(NC(=O)Nc3ccc4c(c3)C(F)(F)OC(F)(F)O4)cc2)ccn1 [Example 131]
inhibition of c-Raf kinase: > 40% and > 80%

CNC(=O)c1cc(Oc2cccc(NC(=O)Nc3ccc4c(c3)OCO4)c2)ccn1 [Example 133]
inhibition of c-Raf kinase: > 80% | inhibition of c-Raf kinase (listed as example 133): > 40%

CNC(=O)c1cc(Oc2ccc(Cl)c(NC(=O)Nc3ccc4c(c3)OCO4)c2)ccn1 [Example 134]
inhibition of c-Raf kinase: > 80% | inhibition of c-Raf kinase (listed as example 134): > 40%

CNC(=O)c1cc(Oc2ccc(NC(=O)Nc3ccc4c(c3)OCO4)c(Cl)c2)ccn1 [Example 136]
inhibition of c-Raf kinase: > 80% and > 40%

NC(=O)c1cc(Oc2ccc(NC(=O)Nc3ccc4c(c3)OCO4)c(F)c2)ccn1 [Example 137]
inhibition of c-Raf kinase: > 80% and > 40%

CNC(=O)c1cc(Oc2cccc(NC(=O)Nc3ccc4c(c3)OCCO4)c2)ccn1 [Example 138]
inhibition of c-Raf kinase: > 80% and > 40%

CNC(=O)c1cc(Oc2ccc(Cl)c(NC(=O)Nc3ccc4c(c3)OCCO4)c2)ccn1 [Example 139]
inhibition of c-Raf kinase: > 80% and > 40%

CNC(=O)c1cc(Oc2cccc(NC(=O)Nc3cc(F)cc4c3OCCO4)c2)ccn1 [Example 140]
inhibition of c-Raf kinase: > 80% and > 40%
